# Reference: the supplement of paper PMC8728848
# Some of the results follow.
# B1: Endo180d1-D4 (Homo sapiens), Q9UBG0 (protein)
# chain: MGPGRPAPAPWPRHLLRCVLLLGCLHLGRPGAPGDAALPEPNVFLIFSHGLQGCLEAQGGQVRVTPACNTSLPAQRWKWVSRNRLFNLGTMQCLGTGWPGTNTTASLGMYECDREALNLRWHCRTLGDQLSLLLGARTSNISKPGTLERGDQTRSGQWRIYGSEEDLCALPYHEVYTIQGNSHGKPCTIPFKYDNQWFHGCTSTGREDGHLWCATTQDYGKDERWGFCPIKSNDCETFWDKDQLTDSCYQFNFQSTLSWREAWASCEQQGADLLSITEIHEQTYINGLLTGYSSTLWIGLNDLDTSGGWQWSDNSPLKYLNWESDQPDNPSEENCGVIRTESSGGWQNRDCSIALPYVCKKKPNATAEPTPPDRWANVKVECEPSWQPFQGHCYRLQAEKRSWQESKKACLRGGGDLVSIHSMAELEFITKQIKQEVEELWIGLNDLKLQMNFEWSDGSLVSFTHWHPFEPNNFRDSLEDCVTIWGPEGRWNDSPCNQSLPSICKKAGQLSQGAAEEDHGCRKGWTWHSPSCYWLGEDQVTYSEARRLCTDHGSQLVTITNRFEQAFVSSLIYNWEGEYFWTALQDLNSTGSFFWLSGDEVMYTHWNRDQPGYSRGGCVALATGSAMGLWEVKNCTSFRARYICRQSLGTPVTPELPGPDPTPSLTGSCPQGWASDTKLRYCYKVFSSERLQDKKSWVQAQGACQELGAQLLSLASYEEEHFVANMLNKIFGESEPEIHEQHWFWIGLNRRDPRGGQSWRWSDGVGFSYHNFDRSRHDDDDIRGCAVLDLASLQWVAMQCDTQLDWICKIPRGTDVREPDDSPQGRREWLRFQEAEYKFFEHHSTWAQAQRICTWFQAELTSVHSQAELDFLSHNLQKFSRAQEQHWWIGLHTSESDGRFRWTDGSIINFISWAPGKPRPVGKDKKCVYMTASREDWGDQRCLTALPYICKRSNVTKETQPPDLPTTALGGCPSDWIQFLNKCFQVQGQEPQSRVKWSEAQFSCEQQEAQLVTITNPLEQAFITASLPNVTFDLWIGLHASQRDFQWVEQEPLMYANWAPGEPSGPSPAPSGNKPTSCAVVLHSPSAHFTGRWDDRSCTEETHGFICQKGTDPSLSPSPAALPPAPGTELSYLNGTFRLLQKPLRWHDALLLCESHNASLAYVPDPYTQAFLTQAARGLRTPLWIGLAGEEGSRRYSWVSEEPLNYVGWQDGEPQQPGGCTYVDVDGAWRTTSCDTKLQGAVCGVSSGPPPPRRISYHGSCPQGLADSAWIPFREHCYSFHMELLLGHKEARQRCQRAGGAVLSILDEMENVFVWEHLQSYEGQSRGAWLGMNFNPKGGTLVWQDNTAVNYSNWGPPGLGPSMLSHNSCYWIQSNSGLWRPGACTNITMGVVCKLPRAEQSSFSPSALPENPAALVVVLMAVLLLLALLTAALILYRRRQSIERGAFEGARYSRSSSSPTEATEKNILVSDMEMNEQQE
# Assays:
# Test in all cases: glycan array binding signal (z-score within array); higher = stronger binding
# Conditions in all cases: glycan notation: IUPAC condensed, linker removed
# [1] = target: GlcNAc(a1-3)Gal(b1-4)GlcNAc
# Method in brief: (§1)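 The Consortium for Functional Glycomics database supplied 3228 glycan arrays, of which those lacking an available protein sequence were dropped. The binding signal, a within-array Z-score, was averaged across arrays of the same protein sequence and across linkers. Negative scores can be read as non-binding.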
# [2] = target: GlcNAc(a1-4)Gal(b1-3)GlcNAc
# Method in brief: as §1
# [3] = target: GlcNAc(a1-4)Gal(b1-4)GalNAc
# Method in brief: as §1
# [4] = target: GlcNAc(a1-4)Gal(b1-4)GlcNAc
# Method in brief: as §1
# [5] = target: GlcNAc(a1-4)Gal(b1-4)GlcNAc(b1-3)Gal(b1-4)Glc
# Method in brief: as §1
# [6] = target: GlcNAc(a1-4)Gal(b1-4)GlcNAc(b1-3)Gal(b1-4)GlcNAc
# Method in brief: as §1
# [7] = target: GlcNAc(a1-4)Gal(b1-4)GlcNAc(b1-3)Gal(b1-4)GlcNAc(b1-3)Gal(b1-4)GlcNAc
# Method in brief: as §1
# [8] = target: GlcNAc(a1-4)Gal(b1-4)GlcNAc(b1-3)Gal(b1-4)[Fuc(a1-3)]GlcNAc(b1-3)Gal(b1-4)[Fuc(a1-3)]GlcNAc
# Method in brief: as §1
# [9] = target: GlcNAc(a1-6)Gal(b1-4)GlcNAc
# Method in brief: as §1
# [10] = target: GlcNAc(b1-2)Gal(b1-3)GalNAc
# Method in brief: as §1
# [11] = target: GlcNAc(b1-2)Man(a1-3)[GlcNAc(b1-2)Man(a1-6)]Man(b1-4)GlcNAc(b1-4)GlcNAc
# Method in brief: as §1
# [12] = target: GlcNAc(b1-2)Man(a1-3)[GlcNAc(b1-2)Man(a1-6)]Man(b1-4)GlcNAc(b1-4)[Fuc(a1-6)]GlcNAc
# Method in brief: as §1
# [13] = target: GlcNAc(b1-2)Man(a1-3)[GlcNAc(b1-4)][GlcNAc(b1-2)Man(a1-6)]Man(b1-4)GlcNAc(b1-4)GlcNAc
# Method in brief: as §1
# [14] = target: GlcNAc(b1-2)Man(a1-3)[GlcNAc(b1-4)][GlcNAc(b1-2)Man(a1-6)]Man(b1-4)GlcNAc(b1-4)[Fuc(a1-6)]GlcNAc
# Method in brief: as §1
# [15] = target: GlcNAc(b1-2)[GlcNAc(b1-4)]Man(a1-3)[GlcNAc(b1-2)Man(a1-6)]Man(b1-4)GlcNAc(b1-4)GlcNAc
# Method in brief: as §1
# [16] = target: GlcNAc(b1-2)[GlcNAc(b1-4)]Man(a1-3)[GlcNAc(b1-4)][GlcNAc(b1-2)Man(a1-6)]Man(b1-4)GlcNAc(b1-4)GlcNAc
# Method in brief: as §1
# [17] = target: GlcNAc(b1-2)[GlcNAc(b1-4)]Man(a1-3)[GlcNAc(b1-4)][GlcNAc(b1-2)[GlcNAc(b1-6)]Man(a1-6)]Man(b1-4)GlcNAc(b1-4)GlcNAc
# Method in brief: as §1
# [18] = target: GlcNAc(b1-2)[GlcNAc(b1-4)]Man(a1-3)[GlcNAc(b1-4)][GlcNAc(b1-2)[GlcNAc(b1-6)]Man(a1-6)]Man(b1-4)GlcNAc(b1-4)[Fuc(a1-6)]GlcNAc
# Method in brief: as §1
# [19] = target: GlcNAc(b1-2)[GlcNAc(b1-6)]Man(a1-6)[GlcNAc(b1-2)Man(a1-3)]Man(b1-4)GlcNAc(b1-4)GlcNAc
# Method in brief: as §1
# [20] = target: GlcNAc(b1-2)[GlcNAc(b1-6)]Man(a1-6)[GlcNAc(b1-2)Man(a1-3)]Man(b1-4)GlcNAc(b1-4)[Fuc(a1-6)]GlcNAc
# Method in brief: as §1
# [21] = target: GlcNAc(b1-2)[GlcNAc(b1-6)]Man(a1-6)[GlcNAc(b1-4)][GlcNAc(b1-2)Man(a1-3)]Man(b1-4)GlcNAc(b1-4)GlcNAc
# Method in brief: as §1
# GlcNAc(b1-3)Fuc = target: GlcNAc(b1-3)Fuc
# Method in brief: as §1
binder,measurement,setting,value
B1,glycan array binding signal (z-score),[1],0.118
same,glycan array binding signal (z-score),[2],0.364
same,glycan array binding signal (z-score),[3],-0.567
same,glycan array binding signal (z-score),[4],0.372
same,glycan array binding signal (z-score),[5],0.607
same,glycan array binding signal (z-score),[6],-0.765
same,glycan array binding signal (z-score),[7],-1.03
same,glycan array binding signal (z-score),[8],-0.416
same,glycan array binding signal (z-score),[9],-0.055
same,glycan array binding signal (z-score),[10],-0.524
same,glycan array binding signal (z-score),[11],-0.032
same,glycan array binding signal (z-score),[12],5.6
same,glycan array binding signal (z-score),[13],-0.82
same,glycan array binding signal (z-score),[14],-0.027
same,glycan array binding signal (z-score),[15],-1.06
same,glycan array binding signal (z-score),[16],-0.162
same,glycan array binding signal (z-score),[17],0.446
same,glycan array binding signal (z-score),[18],1.13
same,glycan array binding signal (z-score),[19],0.094
same,glycan array binding signal (z-score),[20],0.318
same,glycan array binding signal (z-score),[21],0.137
same,glycan array binding signal (z-score),GlcNAc(b1-3)Fuc,0.059

# For reference, part of the list above:
binder,measurement,setting,value
B1,glycan array binding signal (z-score),[3],-0.567
same,glycan array binding signal (z-score),[4],0.372
same,glycan array binding signal (z-score),[5],0.607
same,glycan array binding signal (z-score),[6],-0.765
same,glycan array binding signal (z-score),[7],-1.03
same,glycan array binding signal (z-score),[8],-0.416
